Experimental data: patent US7160907B2, “Pleuromutilin derivatives” (SmithKline Beecham P.L.C., priority 2000, dated 2007)
Some results were stated once for a whole list of compounds, not compound by compound. At least one structure is not confirmed: it was looked up by name or label, or the drawing left a doubt.

Each compound was assayed on Staphylococcus aureus Oxford (assay: conventional MIC assay, Staphylococcus aureus Oxford). Details: against Staphylococcus aureus Oxford.
Format: cell-based
Experimental: (§1) Compounds of the present invention were assessed for anti-bacterial activity in a conventional MIC assay against a range of pathogenic organisms.

Row | SMILES | MIC [µg/mL]
1 | C=C[C@]1(C)C[C@@H](OC(=O)NC(=O)OCC2COCO2)[C@]2(C)[C@H](C)CC[C@]3(CCC(=O)[C@H]32)[C@@H](C)[C@@H]1O (stereo partly drawn) [Example 70] | ≤ 4
2 | C=C[C@]1(C)C[C@@H](OC(=O)NC(=O)OCCNS(C)(=O)=O)[C@]2(C)[C@H](C)CC[C@]3(CCC(=O)[C@H]32)[C@@H](C)[C@@H]1O [Example 8] | ≤ 4
3 | C=CC1(C)CC(OC(=O)NC(=O)OCC2CNCCO2)C2(C)C(C)CCC3(CCC(=O)C32)C(C)C1O.Cl (mixture of isomers) [Example 57] | ≤ 4
4 | C=C[C@]1(C)C[C@@H](OC(=O)NC(=O)OCc2cc(N)nc(N)n2)[C@]2(C)[C@H](C)CC[C@]3(CCC(=O)[C@H]32)[C@@H](C)[C@@H]1O [Example 34] | ≤ 4
5 | C=C[C@]1(C)C[C@@H](OC(=O)NC(=O)OCC(=O)NCCOC)[C@]2(C)[C@H](C)CC[C@]3(CCC(=O)[C@H]32)[C@@H](C)[C@@H]1O [Example 93] | ≤ 4
6 | C=CC1(C)CC(OC(=O)NC(=O)OC2(C)CCNC2)C2(C)C(C)CCC3(CCC(=O)C32)C(C)C1O (mixture of isomers) [Example 48] | ≤ 4

The compounds below were run on Streptococcus pneumoniae 1629 (assay: conventional MIC assay, Streptococcus pneumoniae 1629). Details: against Streptococcus pneumoniae 1629.
Format: cell-based
Experimental: as §1

Row | SMILES | MIC [µg/mL]
7 | C=C[C@]1(C)C[C@@H](OC(=O)NC(=O)OCC2COCO2)[C@]2(C)[C@H](C)CC[C@]3(CCC(=O)[C@H]32)[C@@H](C)[C@@H]1O (stereo partly drawn) [Example 70] | ≤ 4
8 | C=C[C@]1(C)C[C@@H](OC(=O)NC(=O)OCCNS(C)(=O)=O)[C@]2(C)[C@H](C)CC[C@]3(CCC(=O)[C@H]32)[C@@H](C)[C@@H]1O [Example 8] | ≤ 4
9 | C=CC1(C)CC(OC(=O)NC(=O)OCC2CNCCO2)C2(C)C(C)CCC3(CCC(=O)C32)C(C)C1O.Cl (mixture of isomers) [Example 57] | ≤ 4
10 | C=C[C@]1(C)C[C@@H](OC(=O)NC(=O)OCc2cc(N)nc(N)n2)[C@]2(C)[C@H](C)CC[C@]3(CCC(=O)[C@H]32)[C@@H](C)[C@@H]1O [Example 34] | ≤ 4
11 | C=C[C@]1(C)C[C@@H](OC(=O)NC(=O)OCC(=O)NCCOC)[C@]2(C)[C@H](C)CC[C@]3(CCC(=O)[C@H]32)[C@@H](C)[C@@H]1O [Example 93] | ≤ 4
12 | C=CC1(C)CC(OC(=O)NC(=O)OC2(C)CCNC2)C2(C)C(C)CCC3(CCC(=O)C32)C(C)C1O (mixture of isomers) [Example 48] | ≤ 4

What follows are compounds tested on Moraxella catarrhalis 1502 (assay: conventional MIC assay, Moraxella catarrhalis 1502). Details: against Moraxella catarrhalis 1502.
Format: cell-based
Experimental: as §1

Row | SMILES | MIC [µg/mL]
13 | C=C[C@]1(C)C[C@@H](OC(=O)NC(=O)OCC2COCO2)[C@]2(C)[C@H](C)CC[C@]3(CCC(=O)[C@H]32)[C@@H](C)[C@@H]1O (stereo partly drawn) [Example 70] | ≤ 4
14 | C=C[C@]1(C)C[C@@H](OC(=O)NC(=O)OCCNS(C)(=O)=O)[C@]2(C)[C@H](C)CC[C@]3(CCC(=O)[C@H]32)[C@@H](C)[C@@H]1O [Example 8] | ≤ 4
15 | C=CC1(C)CC(OC(=O)NC(=O)OCC2CNCCO2)C2(C)C(C)CCC3(CCC(=O)C32)C(C)C1O.Cl (mixture of isomers) [Example 57] | ≤ 4
16 | C=C[C@]1(C)C[C@@H](OC(=O)NC(=O)OCc2cc(N)nc(N)n2)[C@]2(C)[C@H](C)CC[C@]3(CCC(=O)[C@H]32)[C@@H](C)[C@@H]1O [Example 34] | ≤ 4
17 | C=C[C@]1(C)C[C@@H](OC(=O)NC(=O)OCC(=O)NCCOC)[C@]2(C)[C@H](C)CC[C@]3(CCC(=O)[C@H]32)[C@@H](C)[C@@H]1O [Example 93] | ≤ 4
18 | C=CC1(C)CC(OC(=O)NC(=O)OC2(C)CCNC2)C2(C)C(C)CCC3(CCC(=O)C32)C(C)C1O (mixture of isomers) [Example 48] | ≤ 4

Each compound was assayed on Haemophilus influenzae Q1 (assay: conventional MIC assay, Haemophilus influenzae Q1). Details: against Haemophilus influenzae Q1.
Format: cell-based
Experimental: as §1

Row | SMILES | MIC [µg/mL]
19 | C=C[C@]1(C)C[C@@H](OC(=O)NC(=O)OCC2COCO2)[C@]2(C)[C@H](C)CC[C@]3(CCC(=O)[C@H]32)[C@@H](C)[C@@H]1O (stereo partly drawn) [Example 70] | ≤ 4
20 | C=C[C@]1(C)C[C@@H](OC(=O)NC(=O)OCCNS(C)(=O)=O)[C@]2(C)[C@H](C)CC[C@]3(CCC(=O)[C@H]32)[C@@H](C)[C@@H]1O [Example 8] | ≤ 4
21 | C=CC1(C)CC(OC(=O)NC(=O)OCC2CNCCO2)C2(C)C(C)CCC3(CCC(=O)C32)C(C)C1O.Cl (mixture of isomers) [Example 57] | ≤ 4
22 | C=C[C@]1(C)C[C@@H](OC(=O)NC(=O)OCc2cc(N)nc(N)n2)[C@]2(C)[C@H](C)CC[C@]3(CCC(=O)[C@H]32)[C@@H](C)[C@@H]1O [Example 34] | ≤ 4
23 | C=C[C@]1(C)C[C@@H](OC(=O)NC(=O)OCC(=O)NCCOC)[C@]2(C)[C@H](C)CC[C@]3(CCC(=O)[C@H]32)[C@@H](C)[C@@H]1O [Example 93] | ≤ 4
24 | C=CC1(C)CC(OC(=O)NC(=O)OC2(C)CCNC2)C2(C)C(C)CCC3(CCC(=O)C32)C(C)C1O (mixture of isomers) [Example 48] | ≤ 4
